Measured values: PMC6108399
These are yes or no findings as the source states them, for the method shown. For some assays here: Binding seen in cells or lysates may run through a third protein. Some binding calls cover weakened binding; strength is not graded here. Where a sequence is shown, tags or fusion partners need not be part of it.

Sequences of proteins named here, by UniProt entry; tags and fusion partners are left off.
UniProt Q9FTA2: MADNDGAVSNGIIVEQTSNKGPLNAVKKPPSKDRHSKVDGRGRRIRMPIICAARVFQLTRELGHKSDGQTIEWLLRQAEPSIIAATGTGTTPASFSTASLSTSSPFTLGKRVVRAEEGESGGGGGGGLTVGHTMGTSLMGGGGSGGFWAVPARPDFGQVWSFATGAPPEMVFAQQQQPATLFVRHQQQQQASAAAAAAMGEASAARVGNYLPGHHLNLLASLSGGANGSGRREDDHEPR

B1: BASIC LEUCINE ZIPPER63 (bZIP63), prey fusion from pDEST22:bZIP63 (protein, UniProt B9DGI8 1-314)
chain: MEKVFSDEEISGNHHWSVNGMTSLNRSASEWAFNRFIQESSAAADDGESTTACGVSVSSPPNVPVDSEEYRAFLKSKLNLACAAVAMKRGTFIKPQDTSGRSDNGGANESEQASLASSKATPMMSSAITSGSELSGDEEEADGETNMNPTNVKRVKRMLSNRESARRSRRRKQAHLSELETQVSQLRVENSKLMKGLTDVTQTFNDASVENRVLKANIETLRAKVKMAEETVKRLTGFNPMFHNMPQIVSTVSLPSETSNSPDTTSSQVTTPEIISSGNKGKALIGCKMNRTASMRRVESLEHLQKRIRSVGDQ
B2: bZIP63-YFP^N (protein, UniProt B9DGI8 1-314)
chain: B1 chain

Columns and labels:
[1] = target: CCA1 HIKING EXPEDITION (CHE/TCP21), bait fusion from pDEST32:CHE (Arabidopsis thaliana) (UniProt Q9FTA2); test: two-hybrid; ProQuest Gateway system, pDEST32:bait + pDEST22:prey in S. cerevisiae PJ69-4a; growth on SD/-Leu/-Trp/-His with 3 mM 3AT, 30°C, 3 days
[2] = target: CHE-YFP^C (Arabidopsis thaliana) (UniProt Q9FTA2); test: split reporter; BiFC with split YFP; Agrobacterium C58C1 co-infiltrated into N. benthamiana leaves, pavement cells imaged by confocal microscopy after 3-4 days

Row | Binder | binding [1] | binding [2]
1 | B1 | binds | –
2 | B2 | – | binds
